Assay results published in PubChem BioAssay AID493014 (National Center for Advancing Translational Sciences (NCATS), 2011).
The list shows a part of the results. The main result of the screen is listed elsewhere. These columns were measured beside it and carry no call. The list favours compounds with an active or inconclusive main result. Potencies come from curve fits of mixed quality, noted in brackets.

Assay: qHTS Assay to Find Inhibitors of Chronic Active B-Cell Receptor Signaling
Settings: ABC-DLBCL IkBa-CBG/CBR reporter, luminescence ratio (green luciferase fused to IkBa over red control in TMD8 lymphoma cells), 4 h
How it was run: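 TMD8 human ABC-DLBCL cells with doxycycline-inducible IκBα–green luciferase fusion and unfused red luciferase, in 0.5% FBS medium; compounds up to 46 uM, 4 h at 37C. Green/red luminescence ratio, filter-overlap corrected, fitted to concentration-response curves.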

[1] = measured here: CBR red luminescence, cell number
[2] = measured here: IkBa-CBG green luminescence

| Compound | AC50 [1] | AC50 [2] |
| --- | --- | --- |
| Fc1ccc(CNC(=S)Nc2ccc(Cl)cc2)cc1 | 17.8 µM [rising, partial curve, poor fit] | – |
| CSc1ccc(C(c2c(C)[nH][nH]c2=O)c2c(C)[nH][nH]c2=O)cc1 | 3.16 µM [falling, full curve, poor fit] | – |
| CCN(CC(=O)NCc1ccc(F)cc1)C(=O)COc1ccc(C)c(C)c1 | 0.103 µM [rising, full curve, poor fit] | – |
| COc1ccc(/C(C)=N/NC(=O)c2ccccc2OCc2ccccc2)c(OC)c1 | 11.2 µM [falling, partial curve] | – |
| COCCCNC(=O)C(=O)Nc1ccc2c(c1)N(S(=O)(=O)c1cccs1)CCC2 | 2.06 µM [rising, partial curve, poor fit] | 16.4 µM [falling, partial curve] |
| Cc1ccc(OCc2cc(C(=O)N(C)Cc3cc(C4CC4)n[nH]3)no2)cc1C | 17.8 µM [falling, single point] | – |
| CC(O)CN(C)CC/C=C1/c2ccccc2CSc2ccccc21 (stereo not drawn) | 29.1 µM [falling, partial curve, poor fit] | – |
| O=C(COC(=O)C1CC1)Nc1ccc(Cl)cc1Cl | 2.59 µM [rising, full curve, poor fit] | – |
| COC(=O)c1cc2c(s1)-c1ccc(OC)cc1CC2 | 10 µM [rising, partial curve, poor fit] | – |
| CC(C)(C)N(NC(=O)Nc1ccc(Cl)cc1)C(=O)c1ccccc1 | 15.8 µM [rising, single point] | – |
| COc1ccc(-c2nc3ccccc3c(=O)n2NC(=O)c2cccnc2Cl)cc1OC | 25.9 µM [rising, single point] | – |
| Cn1c(SCc2ccc(F)cc2)nnc1-c1cnccn1 | 1.12 µM [rising, full curve, poor fit] | – |
| O=C(N/N=C/c1cccnc1)c1ccc(O)cc1 | 5.01 µM [falling, full curve, poor fit] | – |
| CCCCC(CC)C(=O)Nc1ccc(Cl)cn1 (stereo not drawn) | 9.2 µM [rising, partial curve, poor fit] | – |
| CCOC(=O)c1sc(NC(=O)Cn2nnc3sc4c(c3c2=O)CCCC4)nc1C | 10 µM [falling, partial curve, poor fit] | – |
| CCN(C(=O)COc1ccc(C(=O)c2ccccc2)cc1)c1ccccc1 | – | 35.5 µM [rising, partial curve, poor fit] |

Arranged by molecular weight (smallest number first): 3 of the compounds above

| Compound | AC50 [1] | AC50 [2] |
| --- | --- | --- |
| COC(=O)c1cc2c(s1)-c1ccc(OC)cc1CC2 | 10 µM [rising, partial curve, poor fit] | – |
| COc1ccc(-c2nc3ccccc3c(=O)n2NC(=O)c2cccnc2Cl)cc1OC | 25.9 µM [rising, single point] | – |
| COCCCNC(=O)C(=O)Nc1ccc2c(c1)N(S(=O)(=O)c1cccs1)CCC2 | 2.06 µM [rising, partial curve, poor fit] | 16.4 µM [falling, partial curve] |
